Data taken from PMC3189238.
These are yes or no findings as the source states them, for the method shown. In cells and extracts the contact can be indirect. Some entries that bind do so weakly or less than the wild type.

The chains behind the UniProt entries cited, without tags or fusion partners. Where a name states a change or a piece, a line headed by the entry shows the natural chain unless it says otherwise.
UniProt P10909: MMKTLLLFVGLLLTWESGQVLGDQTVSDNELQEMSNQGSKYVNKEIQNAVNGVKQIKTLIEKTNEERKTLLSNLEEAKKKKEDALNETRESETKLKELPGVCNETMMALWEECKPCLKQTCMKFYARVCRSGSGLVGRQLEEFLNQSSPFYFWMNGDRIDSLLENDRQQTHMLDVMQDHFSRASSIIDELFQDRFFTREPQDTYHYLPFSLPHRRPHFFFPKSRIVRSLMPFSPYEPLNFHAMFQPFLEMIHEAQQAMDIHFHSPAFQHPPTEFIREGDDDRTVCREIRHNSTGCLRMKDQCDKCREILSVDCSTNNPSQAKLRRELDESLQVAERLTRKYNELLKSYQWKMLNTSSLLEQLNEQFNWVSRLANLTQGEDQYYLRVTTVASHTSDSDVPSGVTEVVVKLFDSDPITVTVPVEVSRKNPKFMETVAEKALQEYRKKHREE
UniProt P02730: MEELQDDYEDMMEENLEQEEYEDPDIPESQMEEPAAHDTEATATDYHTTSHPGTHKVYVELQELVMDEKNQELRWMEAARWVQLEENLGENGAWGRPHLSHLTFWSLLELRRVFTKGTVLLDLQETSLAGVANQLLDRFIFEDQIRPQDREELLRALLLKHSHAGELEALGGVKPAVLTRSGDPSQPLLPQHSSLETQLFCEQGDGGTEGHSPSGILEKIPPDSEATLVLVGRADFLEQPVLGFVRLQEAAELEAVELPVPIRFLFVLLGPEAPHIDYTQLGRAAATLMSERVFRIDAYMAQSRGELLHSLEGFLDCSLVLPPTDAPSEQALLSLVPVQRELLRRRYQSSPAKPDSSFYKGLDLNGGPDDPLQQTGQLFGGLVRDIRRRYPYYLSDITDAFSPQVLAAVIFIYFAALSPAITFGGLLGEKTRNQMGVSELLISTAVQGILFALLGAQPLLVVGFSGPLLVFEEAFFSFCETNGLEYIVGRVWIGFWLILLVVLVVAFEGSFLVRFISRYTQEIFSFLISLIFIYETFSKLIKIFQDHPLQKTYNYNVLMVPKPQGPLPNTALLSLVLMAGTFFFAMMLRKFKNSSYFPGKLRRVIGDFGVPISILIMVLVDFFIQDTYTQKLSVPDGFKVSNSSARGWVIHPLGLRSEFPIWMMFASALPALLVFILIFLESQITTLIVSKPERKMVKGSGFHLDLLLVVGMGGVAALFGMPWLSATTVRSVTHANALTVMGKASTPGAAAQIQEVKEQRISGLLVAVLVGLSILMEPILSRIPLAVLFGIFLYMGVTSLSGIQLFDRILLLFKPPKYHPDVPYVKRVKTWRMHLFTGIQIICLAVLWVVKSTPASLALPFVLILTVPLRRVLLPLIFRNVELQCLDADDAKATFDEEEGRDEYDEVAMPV

T1: stomatin (human (endogenous in RBCs)) (UniProt P27105)
T1 sequence: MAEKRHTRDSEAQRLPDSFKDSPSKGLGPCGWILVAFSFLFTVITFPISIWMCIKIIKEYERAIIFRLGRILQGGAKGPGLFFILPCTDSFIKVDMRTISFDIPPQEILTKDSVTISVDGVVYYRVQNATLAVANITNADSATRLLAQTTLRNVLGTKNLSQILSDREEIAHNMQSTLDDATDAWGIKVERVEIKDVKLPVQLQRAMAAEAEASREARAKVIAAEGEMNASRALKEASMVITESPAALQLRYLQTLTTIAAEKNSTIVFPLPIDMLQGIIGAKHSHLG

B1: CD59 (protein, UniProt P13987 26-102)
chain: LQCYNCPNPTADCKTAVNCSSDFDACLITKAGLQVYNKCWKFEHCNFNDVTTRLRENELTYYCCKKDLCNFNEQLEN

Assays:
Experiment in all cases: co-IP; purified RBC membranes of healthy subjects (1 mg protein) lysed in NP-40 buffer (50 mM Tris-HCl pH 8.0, 150 mM NaCl, 1% NP-40); antibodies against sCLU, Band 3, stomatin or normal serum, 2 h at 4°C, Protein-G Sepharose; immunoblot under reducing conditions
[1] = biological target: Secretory Apolipoprotein J/Clusterin (human (endogenous in RBCs)) (UniProt P10909)
[2] = biological target: Band 3 (human (endogenous in RBCs)) (UniProt P02730)
[3] = biological target: T1, stomatin (human (endogenous in RBCs))

Molecule | binding [1] | binding [2] | binding [3]
Band 3 (from UniProt P02730 1-911) | binds |  | 
Secretory Apolipoprotein J/Clusterin (from UniProt P10909-1 23-227; P10909-1 228-449) |  | binds | no binding
B1 | binds |  | 
